These are yes or no findings as the source states them, for the method shown. Some binding calls cover weakened binding; strength is not graded here. Values belong to the binder of their own block, whether it stands above or below them.
Experiments:
[1] = molecular target: T1, Os018989-4003 aa 90-220 (Oryza sativa); assay: Y2H; output trait library
T1 sequence: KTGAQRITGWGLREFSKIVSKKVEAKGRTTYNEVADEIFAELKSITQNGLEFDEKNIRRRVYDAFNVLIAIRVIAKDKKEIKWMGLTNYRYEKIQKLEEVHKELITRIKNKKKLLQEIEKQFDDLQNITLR

Amino acid sequences for entries named in this document (tags omitted). A change or cut given only in a name is not applied to a line headed by its entry.
UniProt Q6EU39: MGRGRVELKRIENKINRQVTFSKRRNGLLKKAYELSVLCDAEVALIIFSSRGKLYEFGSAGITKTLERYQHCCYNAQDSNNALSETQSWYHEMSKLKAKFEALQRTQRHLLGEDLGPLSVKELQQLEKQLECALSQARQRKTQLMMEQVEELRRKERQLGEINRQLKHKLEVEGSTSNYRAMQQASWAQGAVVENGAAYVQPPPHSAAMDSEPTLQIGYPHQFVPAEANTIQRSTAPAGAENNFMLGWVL

[2] = molecular target: OsMADS6 aa 50-200 (Oryza sativa) (UniProt Q6EU39); assay: Y2H; output trait library
[3] = molecular target: OsTFX1 aa 400-629 (Oryza sativa); assay: Y2H; output trait library
[4] = molecular target: T2, OsGF14-c aa 1-150 (Oryza sativa) (UniProt Q6ZKC0); assay: Y2H; input trait library
T2 sequence: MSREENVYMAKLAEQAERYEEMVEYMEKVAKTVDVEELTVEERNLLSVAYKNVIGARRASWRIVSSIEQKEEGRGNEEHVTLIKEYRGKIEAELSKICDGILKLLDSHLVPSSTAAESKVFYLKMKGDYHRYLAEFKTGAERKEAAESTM

[5] = molecular target: T3, OsDAD1 aa 30-115 (Oryza sativa) (UniProt A2XSY1); assay: Y2H; input trait library
T3 sequence: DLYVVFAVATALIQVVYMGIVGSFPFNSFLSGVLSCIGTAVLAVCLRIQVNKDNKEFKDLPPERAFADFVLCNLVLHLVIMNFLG

B1: OsAAG13527 aa 668-859 (protein)
chain: ELQARKQREAALEAALAEKEHLEEEYKKKFDEAKKKELSLENDLAGMWVLVAKLKRGALGISDLNVDDRSINLADITNGTKENKADKNVAVVEKQLSDNTVKSLTAEEYRNPEFEPLLVRLKAKIQEMKEKETDSLGDKDGNSHVCKVCFESATAAVLLPCRHFCLCKPCSLACSECPLCRTRIADRIITFT
binding [1]: binds

B4: OsPN23022 aa 149-285 (protein)
chain: KKADIGIAVADAIDAARSASDIVLTEPGLSVIISAVLTSRCIFQRMKNYTIYAVSITIRIVLGFLLIALIWKYDFSPFMVLIIAILNDGTIMTISKDRVKPSPLPDSWKLKEIFATGIVLGSYLALMTVIFFWAMHK
binding [4]: binds

Second part, the binder after the results:

binding [2]: binds
B2: OsRP5 aa 13-140 (protein)
chain: VACNASARFDALSQSYRQYQLQSHLLLQQQVLSPCSEFVRQQHSIVATPFWQPATFQLINNQVMQQQCCQQLRLVAQQSHYQAISSVQAIVQQLQLQQVGVVYFDQTQAQAQALLALNLPSICGIYPN

binding [3]: binds
B3: OsPN23829 prey clone -21-216 (protein)
chain: MALSVEKTSSGREYKVKDLSQADFGRLEIELAEVEMPGLMACRAEFGPSQPFKGARISGSLHMTIQTAVLIETLTALGAEVRWCSCNIFSTQDHAAAAIARDSAAVFAWKGETLEEYWWCTERCLDWGVGGGPDLIVDDGGDATLLIHEGVKAEEEFEKSGKVPDPESTDNAEFKIVLTIIRDGLKSDPSKYRKMKERLVGVSEETTTGVKRLYQM

binding [5]: binds
B5: OsPN23022 aa 37-371 (protein)
chain: LFDPPRHDSAETIRKALHLGVNVKMITGDQLAIGKETGRRLGMGTNMYPSSALLGQNKDASLEALPVDELIEKADGFAGVFPEHKYEIVKRLQEKKHIVGMTGDGVNDAPALKKADIGIAVADAIDAARSASDIVLTEPGLSVIISAVLTSRCIFQRMKNYTIYAVSITIRIVLGFLLIALIWKYDFSPFMVLIIAILNDGTIMTISKDRVKPSPLPDSWKLKEIFATGIVLGSYLALMTVIFFWAMHKTDFFTDKFGVRSIRNSEHEMMSALYLQVSIVSQALIFVTRSRSWSFIERPGLLLVTAFMLAQLVATFLAVYANWGFARIKGIGWGW
